Results reported in the supplement of paper PMC10849652.
This is one part of the list.

Chains of the proteins cited; added tags and fusions are not shown. Lines headed by an entry give the natural chain unless they say otherwise; changes in a name come on top.
UniProt Q96A19: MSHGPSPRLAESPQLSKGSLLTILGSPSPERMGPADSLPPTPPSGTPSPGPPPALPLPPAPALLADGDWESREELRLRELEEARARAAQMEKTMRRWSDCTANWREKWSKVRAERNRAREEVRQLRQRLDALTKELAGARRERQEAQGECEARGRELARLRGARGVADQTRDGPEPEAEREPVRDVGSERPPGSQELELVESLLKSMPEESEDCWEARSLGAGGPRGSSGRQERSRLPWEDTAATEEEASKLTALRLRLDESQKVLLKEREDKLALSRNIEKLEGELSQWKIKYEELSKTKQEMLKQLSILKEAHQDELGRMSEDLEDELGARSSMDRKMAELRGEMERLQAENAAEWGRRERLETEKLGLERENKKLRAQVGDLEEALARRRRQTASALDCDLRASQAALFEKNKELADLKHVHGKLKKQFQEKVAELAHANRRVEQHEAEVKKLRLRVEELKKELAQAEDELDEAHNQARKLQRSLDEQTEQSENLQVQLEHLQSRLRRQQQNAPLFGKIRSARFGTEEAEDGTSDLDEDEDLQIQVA
UniProt Q6YHK3: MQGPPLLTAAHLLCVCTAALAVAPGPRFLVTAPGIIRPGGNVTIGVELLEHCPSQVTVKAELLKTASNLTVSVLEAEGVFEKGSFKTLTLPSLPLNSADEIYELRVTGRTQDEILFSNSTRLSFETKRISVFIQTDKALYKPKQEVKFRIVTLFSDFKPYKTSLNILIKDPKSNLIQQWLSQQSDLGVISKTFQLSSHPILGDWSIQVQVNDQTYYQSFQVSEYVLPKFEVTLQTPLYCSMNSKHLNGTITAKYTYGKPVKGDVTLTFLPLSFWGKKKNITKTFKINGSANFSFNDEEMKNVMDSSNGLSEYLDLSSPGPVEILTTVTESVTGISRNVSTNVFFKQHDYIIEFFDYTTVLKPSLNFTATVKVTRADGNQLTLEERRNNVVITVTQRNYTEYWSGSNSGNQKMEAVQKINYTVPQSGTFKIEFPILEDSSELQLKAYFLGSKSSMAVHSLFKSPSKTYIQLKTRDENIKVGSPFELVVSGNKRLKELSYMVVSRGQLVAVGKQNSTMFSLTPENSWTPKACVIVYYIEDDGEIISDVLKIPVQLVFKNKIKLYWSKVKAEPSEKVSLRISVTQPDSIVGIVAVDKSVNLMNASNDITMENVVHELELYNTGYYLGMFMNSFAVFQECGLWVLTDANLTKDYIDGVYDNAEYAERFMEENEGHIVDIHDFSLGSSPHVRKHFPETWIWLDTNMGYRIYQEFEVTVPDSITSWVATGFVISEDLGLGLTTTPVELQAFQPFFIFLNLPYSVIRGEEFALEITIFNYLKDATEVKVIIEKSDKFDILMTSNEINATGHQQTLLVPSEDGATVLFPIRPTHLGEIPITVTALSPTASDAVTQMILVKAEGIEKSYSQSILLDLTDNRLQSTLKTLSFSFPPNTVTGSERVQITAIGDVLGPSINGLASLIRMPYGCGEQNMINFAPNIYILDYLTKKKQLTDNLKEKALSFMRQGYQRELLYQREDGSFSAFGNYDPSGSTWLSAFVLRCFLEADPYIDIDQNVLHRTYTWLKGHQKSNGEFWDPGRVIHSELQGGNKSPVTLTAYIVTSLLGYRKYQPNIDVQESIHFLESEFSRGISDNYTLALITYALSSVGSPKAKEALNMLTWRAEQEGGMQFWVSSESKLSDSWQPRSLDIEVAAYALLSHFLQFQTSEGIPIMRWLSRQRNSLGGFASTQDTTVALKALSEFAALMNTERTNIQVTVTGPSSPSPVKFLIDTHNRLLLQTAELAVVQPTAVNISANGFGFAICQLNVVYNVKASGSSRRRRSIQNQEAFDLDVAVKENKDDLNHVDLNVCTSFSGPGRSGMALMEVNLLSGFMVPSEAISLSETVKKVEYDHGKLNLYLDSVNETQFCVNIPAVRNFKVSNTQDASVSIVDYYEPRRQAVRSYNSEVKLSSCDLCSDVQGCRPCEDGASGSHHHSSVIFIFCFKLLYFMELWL
UniProt Q8N9Z2: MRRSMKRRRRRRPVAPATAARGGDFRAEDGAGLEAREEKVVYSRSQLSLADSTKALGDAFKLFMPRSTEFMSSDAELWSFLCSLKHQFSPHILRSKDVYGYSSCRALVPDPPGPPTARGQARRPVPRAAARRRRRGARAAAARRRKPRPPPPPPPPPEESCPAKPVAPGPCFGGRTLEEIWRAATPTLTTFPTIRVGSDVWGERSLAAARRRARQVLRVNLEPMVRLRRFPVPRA
UniProt A2RUB6: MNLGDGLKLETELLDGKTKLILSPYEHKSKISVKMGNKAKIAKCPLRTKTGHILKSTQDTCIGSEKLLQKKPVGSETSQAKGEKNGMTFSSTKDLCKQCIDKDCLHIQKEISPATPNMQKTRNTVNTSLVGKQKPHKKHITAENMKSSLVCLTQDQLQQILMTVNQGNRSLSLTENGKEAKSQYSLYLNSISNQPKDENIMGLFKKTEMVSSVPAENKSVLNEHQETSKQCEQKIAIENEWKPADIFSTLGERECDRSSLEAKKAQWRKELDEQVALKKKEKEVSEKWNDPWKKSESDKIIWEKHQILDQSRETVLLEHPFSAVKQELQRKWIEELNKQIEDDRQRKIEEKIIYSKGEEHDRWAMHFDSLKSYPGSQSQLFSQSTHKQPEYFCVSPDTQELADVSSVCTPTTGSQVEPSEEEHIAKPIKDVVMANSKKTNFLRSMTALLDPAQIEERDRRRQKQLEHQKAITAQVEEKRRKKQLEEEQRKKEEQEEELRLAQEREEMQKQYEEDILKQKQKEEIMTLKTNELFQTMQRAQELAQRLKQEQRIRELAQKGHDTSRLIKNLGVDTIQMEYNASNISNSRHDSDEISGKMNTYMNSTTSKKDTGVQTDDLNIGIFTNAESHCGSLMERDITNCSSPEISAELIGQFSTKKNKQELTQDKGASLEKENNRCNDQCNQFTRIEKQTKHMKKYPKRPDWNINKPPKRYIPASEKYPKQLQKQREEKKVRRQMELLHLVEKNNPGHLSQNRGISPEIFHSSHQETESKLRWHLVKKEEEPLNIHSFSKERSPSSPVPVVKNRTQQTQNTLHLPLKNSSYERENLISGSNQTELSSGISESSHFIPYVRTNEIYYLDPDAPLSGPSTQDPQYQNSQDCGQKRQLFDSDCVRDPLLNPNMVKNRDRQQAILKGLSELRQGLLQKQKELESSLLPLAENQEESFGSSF
UniProt Q2TAC2: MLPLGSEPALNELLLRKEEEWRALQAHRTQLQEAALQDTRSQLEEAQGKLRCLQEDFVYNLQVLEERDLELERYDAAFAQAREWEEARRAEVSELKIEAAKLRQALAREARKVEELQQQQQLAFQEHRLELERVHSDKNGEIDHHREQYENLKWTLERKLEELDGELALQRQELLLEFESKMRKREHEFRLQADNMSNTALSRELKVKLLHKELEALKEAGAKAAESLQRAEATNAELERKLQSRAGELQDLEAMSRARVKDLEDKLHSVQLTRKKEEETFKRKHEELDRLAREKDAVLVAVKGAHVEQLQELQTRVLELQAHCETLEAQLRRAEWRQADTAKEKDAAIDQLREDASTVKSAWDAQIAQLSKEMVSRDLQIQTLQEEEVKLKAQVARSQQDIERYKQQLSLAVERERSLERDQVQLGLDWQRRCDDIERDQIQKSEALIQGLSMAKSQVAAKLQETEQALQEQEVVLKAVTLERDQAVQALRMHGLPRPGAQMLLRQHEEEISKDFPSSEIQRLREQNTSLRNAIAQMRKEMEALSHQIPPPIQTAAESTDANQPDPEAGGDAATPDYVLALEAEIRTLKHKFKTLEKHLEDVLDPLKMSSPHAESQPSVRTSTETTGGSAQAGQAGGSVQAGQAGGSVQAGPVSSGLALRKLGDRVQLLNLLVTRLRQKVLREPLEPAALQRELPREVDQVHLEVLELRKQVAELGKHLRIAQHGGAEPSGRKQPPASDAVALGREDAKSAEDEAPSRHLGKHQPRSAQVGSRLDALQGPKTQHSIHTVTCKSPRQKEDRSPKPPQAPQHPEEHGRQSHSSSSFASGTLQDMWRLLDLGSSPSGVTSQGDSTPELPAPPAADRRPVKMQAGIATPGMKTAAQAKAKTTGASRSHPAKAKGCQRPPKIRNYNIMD
UniProt O96020, whole entry, looked up: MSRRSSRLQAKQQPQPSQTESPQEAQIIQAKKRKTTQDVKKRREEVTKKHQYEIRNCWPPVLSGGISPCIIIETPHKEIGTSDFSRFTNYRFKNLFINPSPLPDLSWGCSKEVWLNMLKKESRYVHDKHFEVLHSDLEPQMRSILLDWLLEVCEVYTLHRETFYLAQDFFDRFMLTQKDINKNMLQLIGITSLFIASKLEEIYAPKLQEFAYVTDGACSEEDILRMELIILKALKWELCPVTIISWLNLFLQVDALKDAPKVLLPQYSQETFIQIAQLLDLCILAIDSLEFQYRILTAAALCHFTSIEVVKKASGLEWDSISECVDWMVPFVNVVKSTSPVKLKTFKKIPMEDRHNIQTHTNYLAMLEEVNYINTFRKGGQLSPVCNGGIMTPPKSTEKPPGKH
UniProt Q9UK58: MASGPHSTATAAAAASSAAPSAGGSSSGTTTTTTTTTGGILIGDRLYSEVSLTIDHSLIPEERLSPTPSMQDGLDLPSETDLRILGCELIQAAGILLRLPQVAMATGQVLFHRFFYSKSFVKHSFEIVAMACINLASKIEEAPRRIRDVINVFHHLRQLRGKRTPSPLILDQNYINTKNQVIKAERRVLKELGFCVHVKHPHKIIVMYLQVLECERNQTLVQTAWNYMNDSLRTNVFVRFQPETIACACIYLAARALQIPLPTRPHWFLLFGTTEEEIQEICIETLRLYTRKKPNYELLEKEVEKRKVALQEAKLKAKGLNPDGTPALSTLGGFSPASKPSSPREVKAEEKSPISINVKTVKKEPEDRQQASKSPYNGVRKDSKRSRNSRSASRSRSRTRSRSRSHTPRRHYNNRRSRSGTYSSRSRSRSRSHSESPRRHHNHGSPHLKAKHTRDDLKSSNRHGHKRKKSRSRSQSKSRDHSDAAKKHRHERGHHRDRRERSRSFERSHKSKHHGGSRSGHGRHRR
UniProt P15529: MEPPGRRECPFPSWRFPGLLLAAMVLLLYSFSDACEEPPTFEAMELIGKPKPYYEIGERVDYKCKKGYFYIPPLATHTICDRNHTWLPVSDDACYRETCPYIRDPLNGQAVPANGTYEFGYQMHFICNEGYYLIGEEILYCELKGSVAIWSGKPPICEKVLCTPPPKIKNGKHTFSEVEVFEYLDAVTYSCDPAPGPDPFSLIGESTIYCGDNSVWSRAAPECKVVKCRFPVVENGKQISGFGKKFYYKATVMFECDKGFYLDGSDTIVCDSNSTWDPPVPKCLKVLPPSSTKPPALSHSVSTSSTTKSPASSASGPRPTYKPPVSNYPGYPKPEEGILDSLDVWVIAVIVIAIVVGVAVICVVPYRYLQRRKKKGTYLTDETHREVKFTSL
UniProt Q75N03: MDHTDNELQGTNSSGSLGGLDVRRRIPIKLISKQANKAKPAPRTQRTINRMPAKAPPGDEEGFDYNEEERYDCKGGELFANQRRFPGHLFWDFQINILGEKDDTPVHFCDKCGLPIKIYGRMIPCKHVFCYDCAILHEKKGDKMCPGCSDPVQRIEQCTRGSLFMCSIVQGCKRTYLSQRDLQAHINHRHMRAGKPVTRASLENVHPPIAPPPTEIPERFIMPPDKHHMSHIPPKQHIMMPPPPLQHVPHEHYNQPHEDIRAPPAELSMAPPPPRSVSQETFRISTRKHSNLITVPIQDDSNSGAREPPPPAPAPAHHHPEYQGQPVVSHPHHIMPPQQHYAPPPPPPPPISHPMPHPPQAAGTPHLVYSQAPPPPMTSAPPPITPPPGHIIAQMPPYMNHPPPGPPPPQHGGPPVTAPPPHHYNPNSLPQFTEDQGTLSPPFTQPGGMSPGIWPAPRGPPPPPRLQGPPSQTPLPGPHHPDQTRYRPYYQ
UniProt P21926: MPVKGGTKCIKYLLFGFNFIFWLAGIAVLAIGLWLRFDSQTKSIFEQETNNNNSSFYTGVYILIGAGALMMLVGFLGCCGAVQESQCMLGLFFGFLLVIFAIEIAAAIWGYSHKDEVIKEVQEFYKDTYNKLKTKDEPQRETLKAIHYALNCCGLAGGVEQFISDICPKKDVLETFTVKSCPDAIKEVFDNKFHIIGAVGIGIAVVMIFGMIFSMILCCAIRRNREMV
UniProt Q9HC52: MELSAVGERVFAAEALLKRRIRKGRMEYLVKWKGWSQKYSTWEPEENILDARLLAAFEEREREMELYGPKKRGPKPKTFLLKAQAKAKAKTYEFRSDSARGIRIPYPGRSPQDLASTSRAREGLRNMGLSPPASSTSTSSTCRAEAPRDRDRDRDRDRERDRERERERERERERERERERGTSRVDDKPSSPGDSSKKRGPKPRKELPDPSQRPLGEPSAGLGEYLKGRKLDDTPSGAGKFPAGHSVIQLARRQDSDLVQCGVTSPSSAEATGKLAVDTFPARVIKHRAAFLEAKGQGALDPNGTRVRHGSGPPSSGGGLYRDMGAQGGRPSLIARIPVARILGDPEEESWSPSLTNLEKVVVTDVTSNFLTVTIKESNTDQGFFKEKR

Legend:
Test in all cases: log2 fold change, soluble protein after heating vs DMSO (PISA); higher = thermal stabilisation; K562 cells, 10 uM, 30 min; active = over 0.2 and 3.5 SD of the protein, either way, in both replicates (recomputed)
[1] = compound: Cc1cccc(CC(=O)N2CCc3c2ccc(-c2cn(C)c4ncnc(N)c24)c3F)n1
Summary of the method: (§1)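 Soluble protein was quantified by TMTpro 16plex LC-MS/MS after channel sums were equalised. It was obtained as the supernatant after 21,000xg for 90 min from pooled aliquots of K562 cells (2×10^6 cells/mL, 10 μM compound, 30 min) heated for 3 min across 48°C-58°C and extracted in PBS with 0.5% NP-40 at 4°C. Thermal stability values are relative to control samples and come from duplicates. They are given as log2 fold changes.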

[2] = compound: Cn1cc(-c2ccc3c(c2)CCN3C(=O)Cc2cccc(C(F)(F)F)c2)c2c(N)ncnc21
Summary of the method: as §1

tipifarnib = compound: Cn1cncc1[C@@](N)(c1ccc(Cl)cc1)c1ccc2c(c1)c(-c1cccc(Cl)c1)cc(=O)n2C [tipifarnib]
Summary of the method: as §1

[3] = compound: NC(=O)c1cnc(N[C@@H]2CCCC[C@@H]2N)nc1Nc1cccc(-n2nccn2)c1
Summary of the method: as §1

[4] = compound: NCC(=O)Nc1ccc(-n2nc(C(F)(F)F)cc2-c2ccc3c(ccc4ccccc43)c2)cc1
Summary of the method: as §1

vorinostat = compound: O=C(CCCCCCC(=O)Nc1ccccc1)NO [vorinostat]
Summary of the method: as §1

citarinostat = compound: O=C(CCCCCCNC(=O)c1cnc(N(c2ccccc2)c2ccccc2Cl)nc1)NO [citarinostat]
Summary of the method: as §1

[5] = compound: O=C1NC(=O)C(c2cnc3ccccn23)=C1c1cn2c3c(cc(F)cc13)CN(C(=O)N1CCCCC1)CC2
Summary of the method: as §1

[6] = compound: c1cc(OCCN2CCCCC2)cc(-c2n[nH]c3ccc(-c4nnc[nH]4)cc23)c1
Summary of the method: as §1

[7] = compound: Cn1cc(-c2ccc3nnc(C(F)(F)c4ccc5ncccc5c4)n3n2)cn1
Summary of the method: as §1

dasatinib = compound: Cc1nc(Nc2ncc(C(=O)Nc3c(C)cccc3Cl)s2)cc(N2CCN(CCO)CC2)n1 [dasatinib]
Summary of the method: as §1

[8] = compound: NC(=O)Nc1cc(-c2cccc(F)c2)sc1C(=O)N[C@H]1CCCNC1
Summary of the method: as §1

entinostat = compound: Nc1ccccc1NC(=O)c1ccc(CNC(=O)OCc2cccnc2)cc1 [entinostat]
Summary of the method: as §1

nilotinib = compound: Cc1cn(-c2cc(NC(=O)c3ccc(C)c(Nc4nccc(-c5cccnc5)n4)c3)cc(C(F)(F)F)c2)cn1 [nilotinib]
Summary of the method: as §1

[9] = compound: Cc1nc(Nc2n[nH]c3c2CN(C(=O)N[C@H](CN(C)C)c2ccccc2)C3(C)C)c2sccc2n1
Summary of the method: as §1

[10] = compound: Cc1ncc(-c2ccnc(Nc3ccc(S(C)(=O)=O)cc3)n2)n1C(C)C
Summary of the method: as §1

mubritinib = compound: FC(F)(F)c1ccc(/C=C/c2nc(COc3ccc(CCCCn4ccnn4)cc3)co2)cc1 [mubritinib]
Summary of the method: as §1

[11] = compound: NC1(c2ccc(-c3nc4ccn5c(=O)[nH]nc5c4cc3-c3ccccc3)cc2)CCC1
Summary of the method: as §1

silmitasertib = compound: O=C(O)c1ccc2c(c1)nc(Nc1cccc(Cl)c1)c1ccncc12 [silmitasertib]
Summary of the method: as §1

bafetinib = compound: Cc1ccc(NC(=O)c2ccc(CN3CC[C@H](N(C)C)C3)c(C(F)(F)F)c2)cc1Nc1nccc(-c2cncnc2)n1 [bafetinib]
Summary of the method: as §1

Measured: log2 fold change

CCDC102A (UniProt Q96A19)
inactive: [1] -0.309 | [2] 0.006 | tipifarnib 0.026 | [3] -0.018 | [4] 0.153 | vorinostat -0.137 | citarinostat -0.137 | [5] -0.023 | [6] -0.084

CDC27 (UniProt G5EA36)
inactive: [2] 0.116 | [7] -0.227 | tipifarnib -0.051 | [5] -0.081

CD44 (UniProt P16070)
inactive: dasatinib 0.04 | [2] 0.133 | tipifarnib -0.207 | [8] -0.076 | [3] 0.013 | [4] 0.01 | entinostat 0.039

CDC25C (UniProt P30307)
inactive: nilotinib -0.1 | [9] 0.068 | dasatinib 0.024 | [10] -0.035 | [2] -0.14 | mubritinib 0.042 | [3] -0.048 | [11] -0.061 | silmitasertib -0.264 | [5] 0.507

CASP9 (UniProt P55211)
inactive: [1] 0.037 | nilotinib -0.013 | [9] -0.136 | dasatinib -0.075 | [10] 0 | [2] -0.276 | [7] -0.004 | tipifarnib 0.003 | [8] 0.059 | [3] -0.234 | [4] -0.111 | entinostat -0.098 | vorinostat 0.045 | citarinostat 0.05 | [5] -0.057 | [6] 0.054

CD109 (UniProt Q6YHK3)
inactive: [1] -0.047 | dasatinib 0 | [4] -0.267 | vorinostat 0.09

CBX3 (UniProt B8ZZ43)
inactive: bafetinib -0.085 | dasatinib 0.057

CCDC187, A0A1W2PQX5
inactive: [1] -0.106 | nilotinib 0.318 | [9] 0.027 | [10] 0.104 | [7] -0.056 | [3] -0.147 | vorinostat -0.042 | [5] -0.048

CCDC71L isoform 2 (UniProt Q8N9Z2)
inactive: bafetinib 0.005 | [2] -0.075 | [8] -0.234 | entinostat -0.037 | citarinostat -0.078 | [5] -0.004 | [6] -0.214

CCDC66 (UniProt A2RUB6)
inactive: [1] -0.157 | nilotinib -0.109 | [9] -0.13 | [10] 0.311 | mubritinib 0.363 | [11] 0.203 | vorinostat 0.063 | silmitasertib -0.341 | [5] -0.023

CDC25A (UniProt P30304)
inactive: bafetinib -0.072 | nilotinib 0.005 | [9] -0.016 | [10] -0.053 | mubritinib 0.044 | [8] 0.006 | [11] -0.097 | entinostat -0.03 | citarinostat -0.005 | silmitasertib -0.007 | [5] -0.079 | [6] -0.003

CCDC57 (UniProt Q2TAC2)
inactive: bafetinib -0.025 | nilotinib -0.044 | [9] -0.023 | [10] -0.021 | [2] 0.068 | [7] -0.021 | tipifarnib -0.023 | mubritinib 0.031 | [8] -0.025 | [11] -0.014 | [4] -0.04 | entinostat -0.031 | citarinostat 0.008 | silmitasertib -0.038 | [5] -0.002 | [6] -0.11

CCNE2 (UniProt O96020)
inactive: dasatinib -0.096

CD84 (UniProt Q9UIB8)
inactive: dasatinib 0.169 | [2] -0.117 | [8] -0.182 | [3] -0.036 | entinostat 0.234 | [5] 0.084

CCND2 (UniProt P30279)
inactive: [2] 0.103

CCNL1 (UniProt Q9UK58)
inactive: mubritinib 0.122 | [11] -0.224 | silmitasertib -0.173

CD46 (UniProt P15529)
inactive: bafetinib -0.002 | dasatinib 0.119 | [8] 0.122 | [4] -0.105 | entinostat -0.072

CD37 (UniProt P11049)
inactive: [1] -0.07 | nilotinib -0.248 | [9] 0.146 | dasatinib -0.012 | [10] 0.103 | tipifarnib 0.056 | [3] 0.065 | [4] -0.117 | vorinostat -0.021

CD33 (UniProt P20138)
inactive: [1] -0.033 | dasatinib 0.066 | [7] -0.252 | tipifarnib 0.065 | [8] 0.073 | [4] 0.094 | entinostat 0.004 | vorinostat 0.035 | citarinostat -0.037 | [5] 0.03 | [6] 0.076

CBLL1 (UniProt Q75N03)
inactive: nilotinib 0.098 | [9] -0.243 | dasatinib 0.068 | [10] -0.081 | [2] -0.02 | [7] -0.053 | tipifarnib 0.027 | [8] -0.07 | [3] 0.054 | [4] -0.207 | entinostat 0.057 | citarinostat 0.031 | [6] -0.086

CD9 (UniProt P21926)
inactive: [1] 0.471 | dasatinib -0.173 | [2] 0.051 | [8] 0.581 | [3] 0.16 | entinostat 0.217 | vorinostat 0.039 | [5] 0.076

CBX8 (UniProt Q9HC52)
inactive: dasatinib -0.198 | [2] 0.087 | [7] -0.003 | citarinostat -0.445 | [6] -0.321

CCT6B isoform 3 (UniProt Q92526)
inactive: dasatinib -0.007 | [2] 0.117 | tipifarnib -0.014 | [8] -0.1 | [3] -0.169 | [4] 0.014 | entinostat -0.025

CD2BP2 (UniProt O95400)
inactive: bafetinib -0.109 | dasatinib 0.108 | tipifarnib 0.104 | [4] 0.114 | [5] 0.093

2 records picked at random from the list so far:
CD9 (UniProt P21926)
inactive: [1] 0.471 | dasatinib -0.173 | [2] 0.051 | [8] 0.581 | [3] 0.16 | entinostat 0.217 | vorinostat 0.039 | [5] 0.076

CD2BP2 (UniProt O95400)
inactive: bafetinib -0.109 | dasatinib 0.108 | tipifarnib 0.104 | [4] 0.114 | [5] 0.093
